Most values lie at the floor of the assay. Slopes are relative: functional sequences can read slightly below zero. Where only a bound is given, the exact number is not on record here.

The values below come from the supplement of paper PMC5949888.

The subject of this data set is Saccharomyces cerevisiae PS128 hsf1 delta, HSF1(1-493) fusion. Nature of the data set: growth estimate (transactivation domain function in HSF1 fusion, heat-shock survival) (a.u. (slope of normalised read count over time)); higher = stronger growth at 37°C, i.e. more transactivation activity. The settings on record: library: random library.
With RVWRVNEKVGLLVHHRCVFP, the growth estimate is below -0.25.

On to DLIV, for which the growth estimate is below -0.25.

For the substance RNGSHDVEERSGLSNHRTYV, the growth estimate is below -0.25. To WGI belongs below -0.25. The value for GLEIRKA was below -0.25.

Turning to SLPFEASWSVRNEVVDGRVT, the growth estimate is below -0.25. The value for QGGRT was below -0.25; that for PTLNLIFSRPCLPVGD was below -0.25; that for GFSEPSRSTQGADWFQPTAI was below -0.25.

Regarding LGGPYLFIARDMGGAVAALR, the growth estimate was below -0.25. To CVRRITKCVWA belongs below -0.25; to PGVSA, below -0.25. To PNATE belongs below -0.25; to DHYCPGGYATKDNAWALPTA, below -0.25.

For NRVSRILKVHKWRDHCCHSR, the growth estimate was below -0.25. To VELIKAPYLVLLTLGLRGFQ belongs below -0.25; to HRSQ, below -0.25; to FADTKRSRVLMVGCAHRPLA, below -0.25.

For the substance RTLIVE, the growth estimate was below -0.25. Regarding SKSVRTLEPRPAFHLPSAE, the growth estimate was below -0.25. The value for FIQP was below -0.25; that for RMPSQSGSGKGIGWAKD was below -0.25. The value for WGHVVHLTFNKFIILPLSPS was below -0.25; that for PLIHFSDQGYGSVRSSAKFA was below -0.25; that for RGMGSQSG was below -0.25.

Turning to LPVSASRLGKRYDGSRGHPG, the growth estimate is below -0.25. Turning to VRCPRTPIDEFRLGAA, the growth estimate is below -0.25. To TTKAAS belongs below -0.25; to AVQRAKPVSHRVPVA, below -0.25; to YMSSAAWILGRCPVAVAVLQ, below -0.25. The value for EHLLMPFVGRELSKILLKCP was below -0.25. To RQRRGSRYRASMRGR belongs -0.243; to RSLHRAGNV, below -0.25; to TRTVKSY, below -0.25. For the substance PQAATFGKDLLATKSLISLT, the growth estimate is below -0.25. On to TELPCYRCVQTISLVKSYSL, for which the growth estimate was below -0.25. The value for SVCP was below -0.25. The value for RLTPFCIEGWARKPRIADID was below -0.25; that for SSHVALQRGTISPDTPMLCP was below -0.25; that for GNSYPNAPMTNLKLRHSAFR was below -0.25. The value for HLVRRFLFS was below -0.25; that for IRLLA was below -0.25. Turning to GERVRDSSGHTRNGIHGDDD, the growth estimate is below -0.25.

In the case of ATDAPWSGSYLRAERAPS, the growth estimate is below -0.25. The value for KGVE was below -0.25; that for HQTPISSNQLGPRTG was below -0.25; that for TSFIY was below -0.25. To SGRSNVSRWNLVASQRWSEP belongs below -0.25. On to VVDGPQCSGLAGGVTCDV, for which the growth estimate is below -0.25. To KVTFNSEKRSTPGRAPAWKN belongs below -0.25; to SISWGPKSRSG, below -0.25. To NDQPWHRK belongs below -0.25. Consider QGDLRVTHDRWGFVWCWADA, for which the growth estimate was -0.23. To RSCRIPAR belongs below -0.25; to AVW, below -0.25; to SLHGRCATFTPLRAVQVFVP, below -0.25. To KSQPGVSAHIITQRRAETS belongs below -0.25; to FARAWHDHSGQEIRFWSIFY, below -0.25. The value for LWGVLWGSVRWQRP was below -0.25; that for SGGPSGGACMRFAKLSLGLL was below -0.25; that for HAKVPEGTLWACVGGELIYG was below -0.25. GVICYKEQGLVSLLKTPTHQ: the growth estimate was below -0.25. To LSRNRVKLGSKTKKVHVTWY belongs -0.243; to SDLRKSADMVHHLKGPYRPT, -0.246. The value for PGDDLGHTIRCVWIRRRAIC was below -0.25; that for RANFRNQDGPLWSRSSLVPV was below -0.25; that for VWGKGPVKNAALIDIWGRGQ was -0.205. Turning to TLCMRRRQASSSHRGDLVAA, the growth estimate is below -0.25. To QYLTRSSYVLITRYCLFQAT belongs below -0.25; to DLLVPRLGVSCSPQRGQSQD, below -0.25.

On to DVGD, for which the growth estimate was below -0.25.

Consider MCSPTETVGAPPKSHVRSLP, for which the growth estimate was below -0.25. The value for DRNPDRVVRTLSEG was below -0.25.

TNDVAYHESARTAQEPDIQ: the growth estimate is below -0.25.

Regarding SDMGPK, the growth estimate is below -0.25. As for YSHRVGSVLGPGALHMADTW, the growth estimate is -0.172. On to IQTLSPGAVFA, for which the growth estimate is below -0.25. The value for YPGKSSK was below -0.25.
